Assay results taken from the supplement of paper PMC10849652.
Some of the results follow.

Chains of the proteins cited; added tags and fusions are not shown. Lines headed by an entry give the natural chain unless they say otherwise; changes in a name come on top.
UniProt O95163: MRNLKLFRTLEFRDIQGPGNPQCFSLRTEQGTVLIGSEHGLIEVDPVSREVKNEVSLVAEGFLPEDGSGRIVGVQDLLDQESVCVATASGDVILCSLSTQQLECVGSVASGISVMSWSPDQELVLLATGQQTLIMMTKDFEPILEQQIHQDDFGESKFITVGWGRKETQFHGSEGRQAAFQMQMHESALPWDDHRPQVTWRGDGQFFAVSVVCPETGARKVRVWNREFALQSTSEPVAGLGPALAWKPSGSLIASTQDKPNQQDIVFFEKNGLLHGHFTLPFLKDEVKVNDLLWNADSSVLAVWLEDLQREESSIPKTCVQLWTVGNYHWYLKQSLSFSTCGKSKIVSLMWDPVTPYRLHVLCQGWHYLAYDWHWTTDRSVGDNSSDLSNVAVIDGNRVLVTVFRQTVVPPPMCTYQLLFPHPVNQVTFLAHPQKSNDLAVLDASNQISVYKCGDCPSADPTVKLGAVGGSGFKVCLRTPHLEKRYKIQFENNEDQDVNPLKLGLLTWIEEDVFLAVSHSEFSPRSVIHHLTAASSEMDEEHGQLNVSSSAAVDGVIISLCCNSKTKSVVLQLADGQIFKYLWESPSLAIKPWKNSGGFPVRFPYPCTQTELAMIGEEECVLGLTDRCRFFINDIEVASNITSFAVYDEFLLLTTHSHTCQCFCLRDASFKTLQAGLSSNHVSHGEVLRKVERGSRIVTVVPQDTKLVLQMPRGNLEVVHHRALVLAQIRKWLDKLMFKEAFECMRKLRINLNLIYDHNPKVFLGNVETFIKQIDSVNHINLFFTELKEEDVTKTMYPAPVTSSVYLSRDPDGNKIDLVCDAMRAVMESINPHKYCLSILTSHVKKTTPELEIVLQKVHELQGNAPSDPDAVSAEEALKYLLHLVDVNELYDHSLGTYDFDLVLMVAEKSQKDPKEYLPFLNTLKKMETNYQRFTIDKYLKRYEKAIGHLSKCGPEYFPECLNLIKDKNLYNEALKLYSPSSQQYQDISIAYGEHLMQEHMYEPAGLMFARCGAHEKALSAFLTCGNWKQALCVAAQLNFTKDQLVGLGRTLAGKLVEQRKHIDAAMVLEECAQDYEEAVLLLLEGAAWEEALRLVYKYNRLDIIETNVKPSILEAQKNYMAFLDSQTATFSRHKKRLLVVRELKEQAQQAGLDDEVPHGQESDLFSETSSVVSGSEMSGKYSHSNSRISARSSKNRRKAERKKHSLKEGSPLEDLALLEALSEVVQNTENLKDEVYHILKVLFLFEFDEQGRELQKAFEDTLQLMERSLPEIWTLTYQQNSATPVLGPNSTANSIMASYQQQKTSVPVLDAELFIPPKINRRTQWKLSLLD
UniProt Q8NFI3: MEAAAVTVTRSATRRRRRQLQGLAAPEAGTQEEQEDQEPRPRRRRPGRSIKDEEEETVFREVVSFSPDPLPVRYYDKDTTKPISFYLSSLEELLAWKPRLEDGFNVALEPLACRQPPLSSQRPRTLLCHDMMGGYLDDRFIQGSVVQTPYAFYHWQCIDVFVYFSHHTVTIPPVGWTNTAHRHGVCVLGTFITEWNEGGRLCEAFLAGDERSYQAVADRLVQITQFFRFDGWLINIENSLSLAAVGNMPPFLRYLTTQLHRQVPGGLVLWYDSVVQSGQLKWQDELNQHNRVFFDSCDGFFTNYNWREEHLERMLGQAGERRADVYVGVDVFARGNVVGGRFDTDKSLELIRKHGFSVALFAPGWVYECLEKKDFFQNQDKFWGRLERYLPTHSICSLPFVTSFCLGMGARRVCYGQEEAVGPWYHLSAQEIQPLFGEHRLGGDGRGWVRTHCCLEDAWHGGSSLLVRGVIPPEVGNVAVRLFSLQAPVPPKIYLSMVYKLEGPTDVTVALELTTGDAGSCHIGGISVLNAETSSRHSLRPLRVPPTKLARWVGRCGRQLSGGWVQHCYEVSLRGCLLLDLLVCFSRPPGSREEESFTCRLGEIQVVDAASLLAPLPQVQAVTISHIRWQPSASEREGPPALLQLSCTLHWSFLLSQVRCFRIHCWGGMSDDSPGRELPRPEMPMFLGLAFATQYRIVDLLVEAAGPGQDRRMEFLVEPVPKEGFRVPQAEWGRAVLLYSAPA
UniProt O75821, whole entry, looked up: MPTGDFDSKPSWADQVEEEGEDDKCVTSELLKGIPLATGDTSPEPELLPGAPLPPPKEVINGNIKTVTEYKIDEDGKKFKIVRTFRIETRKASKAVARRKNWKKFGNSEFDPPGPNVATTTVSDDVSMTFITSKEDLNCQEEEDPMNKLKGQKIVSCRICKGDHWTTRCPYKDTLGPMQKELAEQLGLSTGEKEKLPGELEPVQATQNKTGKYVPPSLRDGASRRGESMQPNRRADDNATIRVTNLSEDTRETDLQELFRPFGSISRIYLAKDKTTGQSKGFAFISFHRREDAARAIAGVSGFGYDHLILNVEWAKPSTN
UniProt P98172: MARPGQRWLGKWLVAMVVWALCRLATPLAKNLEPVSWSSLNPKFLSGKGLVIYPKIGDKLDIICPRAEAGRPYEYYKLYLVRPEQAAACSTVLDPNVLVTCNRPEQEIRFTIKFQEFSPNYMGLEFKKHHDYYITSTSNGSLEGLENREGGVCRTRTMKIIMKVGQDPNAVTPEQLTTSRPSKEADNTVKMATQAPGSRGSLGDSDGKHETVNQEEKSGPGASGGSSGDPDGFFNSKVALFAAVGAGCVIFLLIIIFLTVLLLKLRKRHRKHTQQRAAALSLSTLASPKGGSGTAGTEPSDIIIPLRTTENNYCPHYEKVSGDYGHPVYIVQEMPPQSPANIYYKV
UniProt O75822, whole entry, looked up: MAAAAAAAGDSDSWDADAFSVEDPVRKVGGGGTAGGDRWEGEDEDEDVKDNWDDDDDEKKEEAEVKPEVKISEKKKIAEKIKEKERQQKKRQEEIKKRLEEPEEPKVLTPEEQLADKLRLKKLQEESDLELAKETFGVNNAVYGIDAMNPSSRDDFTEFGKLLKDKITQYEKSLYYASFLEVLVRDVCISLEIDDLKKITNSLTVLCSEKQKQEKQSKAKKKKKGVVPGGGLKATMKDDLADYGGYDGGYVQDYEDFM
UniProt Q15369, whole entry, looked up: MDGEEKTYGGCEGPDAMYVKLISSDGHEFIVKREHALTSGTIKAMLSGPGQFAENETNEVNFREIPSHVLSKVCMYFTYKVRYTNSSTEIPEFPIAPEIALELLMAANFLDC
UniProt Q9NPA0: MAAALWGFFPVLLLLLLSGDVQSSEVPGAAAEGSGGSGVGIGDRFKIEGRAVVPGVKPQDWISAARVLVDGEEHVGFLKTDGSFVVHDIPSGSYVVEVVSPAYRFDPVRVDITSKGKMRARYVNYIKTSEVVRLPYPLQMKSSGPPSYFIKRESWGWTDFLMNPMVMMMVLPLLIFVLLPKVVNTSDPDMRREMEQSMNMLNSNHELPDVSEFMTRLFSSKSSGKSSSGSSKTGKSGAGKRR
UniProt P50402: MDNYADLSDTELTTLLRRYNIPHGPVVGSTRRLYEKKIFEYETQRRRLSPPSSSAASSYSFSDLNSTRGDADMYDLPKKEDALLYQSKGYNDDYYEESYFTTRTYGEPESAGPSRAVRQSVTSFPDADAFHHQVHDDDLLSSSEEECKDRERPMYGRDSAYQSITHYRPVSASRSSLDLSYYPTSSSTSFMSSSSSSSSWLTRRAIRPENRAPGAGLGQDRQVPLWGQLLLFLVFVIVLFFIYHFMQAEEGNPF
UniProt Q92979: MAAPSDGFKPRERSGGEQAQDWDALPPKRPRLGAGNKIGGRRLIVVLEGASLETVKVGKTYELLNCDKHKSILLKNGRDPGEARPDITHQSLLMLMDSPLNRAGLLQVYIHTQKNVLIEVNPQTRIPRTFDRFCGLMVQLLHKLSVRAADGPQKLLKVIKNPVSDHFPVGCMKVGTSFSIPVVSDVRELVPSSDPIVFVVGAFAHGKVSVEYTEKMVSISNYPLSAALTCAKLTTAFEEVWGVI
UniProt Q9H4M9: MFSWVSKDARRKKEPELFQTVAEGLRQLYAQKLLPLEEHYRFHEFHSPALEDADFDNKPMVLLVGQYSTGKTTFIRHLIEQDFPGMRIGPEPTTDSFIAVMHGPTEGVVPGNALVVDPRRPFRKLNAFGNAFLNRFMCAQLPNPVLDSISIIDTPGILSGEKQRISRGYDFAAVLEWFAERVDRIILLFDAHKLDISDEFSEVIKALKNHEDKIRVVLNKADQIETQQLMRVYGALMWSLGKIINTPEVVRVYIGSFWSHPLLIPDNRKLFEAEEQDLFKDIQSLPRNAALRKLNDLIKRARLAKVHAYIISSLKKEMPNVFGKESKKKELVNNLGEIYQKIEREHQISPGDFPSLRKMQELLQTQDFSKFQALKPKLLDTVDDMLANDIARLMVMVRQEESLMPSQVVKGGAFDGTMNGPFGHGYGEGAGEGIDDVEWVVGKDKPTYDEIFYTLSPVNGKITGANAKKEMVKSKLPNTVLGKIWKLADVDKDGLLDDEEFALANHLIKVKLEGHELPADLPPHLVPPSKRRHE
UniProt Q08426: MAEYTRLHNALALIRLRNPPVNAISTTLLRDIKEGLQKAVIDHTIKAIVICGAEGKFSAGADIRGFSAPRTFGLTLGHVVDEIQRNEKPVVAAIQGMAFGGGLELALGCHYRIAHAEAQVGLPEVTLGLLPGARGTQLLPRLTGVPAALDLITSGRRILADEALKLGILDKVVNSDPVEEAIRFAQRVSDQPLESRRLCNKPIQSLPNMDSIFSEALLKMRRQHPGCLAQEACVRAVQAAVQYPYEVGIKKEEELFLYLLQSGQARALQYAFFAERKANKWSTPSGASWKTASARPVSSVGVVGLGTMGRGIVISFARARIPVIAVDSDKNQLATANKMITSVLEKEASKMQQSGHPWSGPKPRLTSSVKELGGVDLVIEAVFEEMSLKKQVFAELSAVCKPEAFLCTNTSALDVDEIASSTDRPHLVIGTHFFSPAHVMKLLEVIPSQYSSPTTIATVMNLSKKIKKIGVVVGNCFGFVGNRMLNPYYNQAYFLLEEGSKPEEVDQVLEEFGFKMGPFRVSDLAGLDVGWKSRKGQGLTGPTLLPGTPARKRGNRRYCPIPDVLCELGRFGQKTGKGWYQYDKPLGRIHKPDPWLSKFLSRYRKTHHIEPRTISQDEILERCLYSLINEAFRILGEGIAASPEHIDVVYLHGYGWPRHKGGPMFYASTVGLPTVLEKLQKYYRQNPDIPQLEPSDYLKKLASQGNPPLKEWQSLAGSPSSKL
UniProt P49770: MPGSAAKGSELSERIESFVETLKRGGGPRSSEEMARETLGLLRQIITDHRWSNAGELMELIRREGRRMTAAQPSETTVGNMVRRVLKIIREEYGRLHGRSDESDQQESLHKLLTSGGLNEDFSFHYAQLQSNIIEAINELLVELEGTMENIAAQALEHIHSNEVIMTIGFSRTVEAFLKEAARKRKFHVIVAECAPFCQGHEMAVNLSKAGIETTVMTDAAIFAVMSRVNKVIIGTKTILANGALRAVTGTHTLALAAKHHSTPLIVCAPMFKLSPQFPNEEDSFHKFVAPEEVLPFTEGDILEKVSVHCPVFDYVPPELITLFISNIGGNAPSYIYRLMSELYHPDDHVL
UniProt Q96EB1: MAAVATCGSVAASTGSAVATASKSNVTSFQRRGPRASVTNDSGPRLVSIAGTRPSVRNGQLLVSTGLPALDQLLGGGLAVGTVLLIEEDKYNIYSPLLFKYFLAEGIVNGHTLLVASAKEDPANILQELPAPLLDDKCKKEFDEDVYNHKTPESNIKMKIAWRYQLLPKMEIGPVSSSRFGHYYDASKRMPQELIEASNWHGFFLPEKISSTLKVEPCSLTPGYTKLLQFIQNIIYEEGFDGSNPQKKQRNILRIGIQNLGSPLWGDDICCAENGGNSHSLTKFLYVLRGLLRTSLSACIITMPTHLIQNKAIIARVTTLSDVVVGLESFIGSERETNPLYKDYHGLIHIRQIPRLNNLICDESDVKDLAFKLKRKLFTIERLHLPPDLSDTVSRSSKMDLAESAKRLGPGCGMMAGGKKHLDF
UniProt Q9BV81: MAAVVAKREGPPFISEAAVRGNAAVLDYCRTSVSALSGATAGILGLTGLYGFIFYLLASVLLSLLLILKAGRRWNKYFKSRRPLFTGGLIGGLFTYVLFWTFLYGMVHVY
UniProt Q9H223: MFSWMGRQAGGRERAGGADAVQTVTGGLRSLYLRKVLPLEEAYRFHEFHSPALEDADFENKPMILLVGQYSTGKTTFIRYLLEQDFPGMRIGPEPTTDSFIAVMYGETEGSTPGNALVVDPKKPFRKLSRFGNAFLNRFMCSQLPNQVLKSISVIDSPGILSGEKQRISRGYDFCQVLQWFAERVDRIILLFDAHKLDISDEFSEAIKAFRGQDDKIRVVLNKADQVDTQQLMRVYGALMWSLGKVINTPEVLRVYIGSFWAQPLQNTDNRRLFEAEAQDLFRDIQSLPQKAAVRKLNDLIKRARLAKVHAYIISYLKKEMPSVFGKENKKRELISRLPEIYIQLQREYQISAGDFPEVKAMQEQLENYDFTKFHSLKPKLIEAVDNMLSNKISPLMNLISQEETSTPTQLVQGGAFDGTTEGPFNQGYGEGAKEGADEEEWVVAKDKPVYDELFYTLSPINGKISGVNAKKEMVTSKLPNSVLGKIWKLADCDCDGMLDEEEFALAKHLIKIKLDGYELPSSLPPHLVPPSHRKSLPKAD

Tests used:
Test in all cases: log2 fold change, soluble protein after heating vs DMSO (PISA); higher = thermal stabilisation; K562 cells, 10 uM, 30 min; active = over 0.2 and 3.5 SD of the protein, either way, in both replicates (recomputed)
[1] = compound: COC1=CC=C(C=C1)CN2C=CC3=C2C=C(C=C3)C(=O)NO
Procedure, shortened: (§1)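 K562 cells at 2×10^6 cells/mL were treated with 10 μM compound for 30 min. Aliquots were heated for 3 min across 48°C-58°C, pooled, and extracted in PBS with 0.5% NP-40 at 4°C; soluble protein was the supernatant after 21,000xg for 90 min. Soluble protein was quantified by TMTpro 16plex LC-MS/MS with channel sums equalised, and reported as log2 fold change in thermal stability against DMSO controls, with values from duplicates.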

filanesib = compound: CON(C)C(=O)N1N=C(c2cc(F)ccc2F)S[C@@]1(CCCN)c1ccccc1 [filanesib]
Procedure, shortened: as §1

zotarolimus = compound: CO[C@H]1C[C@@H]2CC[C@@H](C)[C@@](O)(O2)C(=O)C(=O)N2CCCC[C@H]2C(=O)O[C@H]([C@H](C)C[C@@H]2CC[C@H](n3cnnn3)[C@H](OC)C2)CC(=O)[C@H](C)/C=C(\C)[C@@H](O)[C@@H](OC)C(=O)[C@H](C)C[C@H](C)/C=C/C=C/C=C/1C [zotarolimus]
Procedure, shortened: as §1

idasanutlin = compound: COc1cc(C(=O)O)ccc1NC(=O)[C@@H]1N[C@@H](CC(C)(C)C)[C@](C#N)(c2ccc(Cl)cc2F)[C@H]1c1cccc(Cl)c1F [idasanutlin]
Procedure, shortened: as §1

alisertib = compound: COc1cc(Nc2ncc3c(n2)-c2ccc(Cl)cc2C(c2c(F)cccc2OC)=NC3)ccc1C(=O)O [alisertib]
Procedure, shortened: as §1

[2] = compound: COc1cc2nc(-c3cc(F)ccc3O)nc(N[C@@H]3CNC[C@H]3C(C)(C)O)c2cc1OC
Procedure, shortened: as §1

gefitinib = compound: COc1cc2ncnc(Nc3ccc(F)c(Cl)c3)c2cc1OCCCN1CCOCC1 [gefitinib]
Procedure, shortened: as §1

[3] = compound: COc1cccc2cc(-c3nc([C@H]4CC[C@H](C(=O)O)CC4)n4ncnc(N)c34)[nH]c12
Procedure, shortened: as §1

lapatinib = compound: CS(=O)(=O)CCNCc1ccc(-c2ccc3ncnc(Nc4ccc(OCc5cccc(F)c5)c(Cl)c4)c3c2)o1 [lapatinib]
Procedure, shortened: as §1

pictilisib = compound: CS(=O)(=O)N1CCN(Cc2cc3nc(-c4cccc5[nH]ncc45)nc(N4CCOCC4)c3s2)CC1 [pictilisib]
Procedure, shortened: as §1

Measured: log2 fold change

EML3 (UniProt Q32P44)
inactive: [1] -0.114 | filanesib 0.059 | zotarolimus -0.031 | idasanutlin 0.102 | alisertib -0.18 | [2] 0.059 | gefitinib -0.093 | [3] -0.161 | lapatinib 0.137 | pictilisib -0.107

ELP1 (UniProt O95163)
inactive: [1] -0.125 | filanesib -0.037 | zotarolimus 0.011 | idasanutlin -0.028 | alisertib -0.008 | [2] -0.004 | gefitinib 0.013 | [3] 0.045 | lapatinib 0.016 | pictilisib 0.034

EEF1AKNMT (UniProt Q8N6R0)
inactive: [1] -0.256 | filanesib -0.052 | zotarolimus 0.096 | idasanutlin 0.013 | alisertib -0.035 | [2] 0.037 | gefitinib 0.065 | [3] -0.037 | lapatinib -0.014 | pictilisib 0

ENGASE (UniProt Q8NFI3)
inactive: [1] 0.025 | filanesib 0.028 | zotarolimus 0.061 | idasanutlin -0.094 | alisertib 0.014 | [2] -0.005 | gefitinib 0.006 | [3] 0.028 | lapatinib 0.066 | pictilisib 0.021

EIF4A2 isoform 2 (UniProt Q14240)
inactive: [1] -0.025 | filanesib -0.053 | zotarolimus 0 | idasanutlin -0.087 | alisertib -0.026 | [2] -0.011 | gefitinib 0.015 | [3] -0.002 | lapatinib -0.008 | pictilisib -0.047

EIF6 (UniProt P56537)
inactive: [1] 0.007 | filanesib -0.009 | zotarolimus -0.054 | idasanutlin 0.059 | alisertib -0.114 | [2] 0.054 | gefitinib 0.013 | [3] 0.014 | lapatinib -0.07 | pictilisib -0.017

EML4 (UniProt Q9HC35)
inactive: [1] 0.046 | filanesib 0.079 | zotarolimus 0.004 | idasanutlin 0.05 | alisertib 0.041 | [2] 0.125 | gefitinib -0.001 | [3] -0.141 | lapatinib -0.007 | pictilisib -0.004

EIF3G (UniProt O75821)
inactive: [1] -0.035 | filanesib 0.059 | zotarolimus 0.02 | idasanutlin -0.05 | alisertib -0.04 | [2] -0.112 | gefitinib -0.027 | [3] -0.041 | lapatinib -0.037 | pictilisib -0.035

EFNB1 (UniProt P98172)
inactive: [1] -0.008 | filanesib -0.229 | zotarolimus -0.124 | idasanutlin 0.058 | alisertib -0.097 | [2] 0.015 | gefitinib 0.19 | [3] 0.003 | lapatinib -0.049 | pictilisib 0.099

ENY2 (UniProt Q9NPA8)
inactive: [1] -0.025 | filanesib -0.005 | zotarolimus 0.023 | idasanutlin -0.063 | alisertib -0.017 | [2] -0.036 | gefitinib 0.003 | [3] -0.001 | lapatinib 0.015 | pictilisib 0.009

EIF3J (UniProt O75822)
inactive: [1] -0.067 | filanesib -0.086 | zotarolimus 0.007 | idasanutlin -0.042 | alisertib -0.018 | [2] 0.079 | gefitinib -0.004 | [3] -0.057 | lapatinib -0.057 | pictilisib -0.04

ELOC (UniProt Q15369)
inactive: [1] 0.007 | filanesib 0.04 | zotarolimus 0.096 | idasanutlin -0.009 | alisertib -0.009 | [2] 0.033 | gefitinib -0.006 | [3] 0.011 | lapatinib -0.002 | pictilisib 0.105

EMC7 (UniProt Q9NPA0)
inactive: [1] -0.097 | filanesib -0.01 | zotarolimus -0.033 | idasanutlin -0.015 | alisertib -0.03 | [2] 0.044 | gefitinib 0.013 | [3] 0.02 | lapatinib -0.031 | pictilisib 0.04

ELP3 (UniProt Q9H9T3)
inactive: [1] -0.102 | filanesib -0.128 | zotarolimus 0.018 | idasanutlin -0.04 | alisertib -0.087 | [2] 0.044 | gefitinib 0.05 | [3] 0.025 | lapatinib 0.002 | pictilisib 0.093

EMD (UniProt P50402)
inactive: [1] -0.049 | filanesib -0.013 | zotarolimus 0.007 | idasanutlin 0.037 | alisertib -0.08 | [2] -0.031 | gefitinib -0.053 | [3] 0.074 | lapatinib -0.025 | pictilisib 0.093

EMG1 (UniProt Q92979)
inactive: [1] -0.051 | filanesib 0.001 | zotarolimus -0.005 | idasanutlin 0.055 | alisertib 0.012 | [2] -0.051 | gefitinib -0.034 | [3] -0.002 | lapatinib 0.035 | pictilisib -0.133

EED, A0A5F9ZI63
inactive: [1] 0.008 | filanesib 0.115 | zotarolimus -0.01 | idasanutlin 0.08 | alisertib -0.097 | [2] 0.032 | gefitinib 0.006 | [3] 0.018 | lapatinib 0.091 | pictilisib -0.163

EFCAB14 (UniProt O75071)
inactive: [1] 0.139 | filanesib -0.018 | zotarolimus 0.147 | idasanutlin 0.027 | alisertib 0.043 | [2] -0.014 | gefitinib 0.04 | [3] -0.04 | lapatinib 0.021 | pictilisib 0.06

EHD1 (UniProt Q9H4M9)
inactive: [1] -0.007 | filanesib -0.063 | zotarolimus 0.016 | idasanutlin -0.074 | alisertib -0.058 | [2] 0 | gefitinib -0.017 | [3] 0.026 | lapatinib -0.021 | pictilisib -0.033

Reprinted at random: 2 records from the list, in no set order.
EIF3J (UniProt O75822)
inactive: [1] -0.067 | filanesib -0.086 | zotarolimus 0.007 | idasanutlin -0.042 | alisertib -0.018 | [2] 0.079 | gefitinib -0.004 | [3] -0.057 | lapatinib -0.057 | pictilisib -0.04

EIF6 (UniProt P56537)
inactive: [1] 0.007 | filanesib -0.009 | zotarolimus -0.054 | idasanutlin 0.059 | alisertib -0.114 | [2] 0.054 | gefitinib 0.013 | [3] 0.014 | lapatinib -0.07 | pictilisib -0.017

(cont.)

EHHADH (UniProt Q08426)
inactive: [1] -0.035 | filanesib -0.012 | zotarolimus -0.001 | idasanutlin -0.027 | alisertib -0.021 | [2] 0.093 | gefitinib 0.019 | [3] 0.001 | lapatinib -0.024 | pictilisib 0.002

ELMOD2 (UniProt Q8IZ81)
inactive: [1] -0.004 | filanesib -0.032 | zotarolimus 0 | idasanutlin -0.05 | alisertib -0.027 | [2] 0.059 | gefitinib -0.003 | [3] 0.021 | lapatinib -0.066 | pictilisib -0.003

EIF2B2 (UniProt P49770)
inactive: [1] -0.02 | filanesib 0.044 | zotarolimus 0.018 | idasanutlin -0.033 | alisertib -0.076 | [2] -0.048 | gefitinib 0.015 | [3] -0.071 | lapatinib 0.03 | pictilisib -0.012

ELP5 isoform 4 (UniProt Q8TE02)
inactive: [1] -0.051 | filanesib 0.012 | zotarolimus 0.007 | idasanutlin 0.017 | alisertib -0.07 | [2] 0.009 | gefitinib 0.023 | [3] 0.04 | lapatinib -0.049 | pictilisib 0.005

ELP4 isoform 3 (UniProt Q96EB1)
inactive: [1] 0.048 | filanesib 0.004 | zotarolimus -0.022 | idasanutlin -0.011 | alisertib -0.053 | [2] -0.018 | gefitinib -0.034 | [3] 0.074 | lapatinib 0.081 | pictilisib -0.03

EMC6 (UniProt Q9BV81)
inactive: [1] 0.146 | filanesib 0.006 | zotarolimus 0.006 | idasanutlin -0.053 | alisertib -0.034 | [2] -0.052 | gefitinib -0.007 | [3] 0.041 | lapatinib -0.021 | pictilisib 0.093

EHD4 (UniProt Q9H223)
inactive: [1] -0.038 | filanesib -0.062 | zotarolimus 0.011 | idasanutlin -0.099 | alisertib -0.04 | [2] 0.035 | gefitinib -0.003 | [3] 0.01 | lapatinib -0.041 | pictilisib 0.026

EMC3 (UniProt Q9P0I2)
inactive: [1] -0.068 | filanesib -0.065 | zotarolimus 0.022 | idasanutlin -0.063 | alisertib -0.026 | [2] 0.082 | gefitinib 0.032 | [3] 0.034 | lapatinib -0.002 | pictilisib -0.016

EEF1B2 (UniProt P24534)
inactive: [1] 0.033 | filanesib 0.031 | zotarolimus 0.035 | idasanutlin 0.007 | alisertib 0.023 | [2] 0.03 | gefitinib 0.024 | [3] -0.061 | lapatinib -0.029 | pictilisib 0.014
